Measured values reported in paper PMC12670160, “A drug-repurposing screen of FDA- and EMA-approved drugs identifies two NF-κB inhibitors active against eumycetoma” (Journal of Antimicrobial Chemotherapy, 2025).
Where a name gives a salt, the structure may show the parent alone. Screen size: about 5,300 compounds; about 130 (2.5%) showed an effect of 50% or more. This is one part of the list.

These compounds were tested on M. mycetomatis strain mm55. Conditions: primary screen, metabolic activity vs growth control; 96 h, 2 µM; inhibitor.

Structure (SMILES) | % viability
O=C(O)C(=O)Cc1c[nH]c2ccccc12 [ONC0005628, indole3pyrubate] | 60.98%
CC(COc1ccccc1)NC(C)[C@H](O)c1ccc(O)cc1 (stereo partly drawn) [ONC0000598, isoxsuprine hydrochloride] | 84.27%
CC[C@H]1CN2CCC1C[C@@H]2[C@@H](O)c1ccnc2ccc(OC)cc12 (stereo partly drawn) [ONC0003391, hydroquinidine] | 61.36%
COc1cc2nccc(Oc3ccc(NC(=O)NC4CC4)c(Cl)c3)c2cc1C(N)=O [ONC0004715, e7080 lenvatinib] | 108%
Nc1ccn([C@@H]2O[C@@](CO)(CCl)[C@@H](O)[C@H]2F)c(=O)n1 [ONC0000939, als8112] | 44.91%
CCC(C)(Oc1ccc(C2(c3ccc(OC(C)(CC)C(=O)O)cc3)CCCCC2)cc1)C(=O)O (stereo not drawn) [ONC0005256, clinofibrate] | 121.9%
C[C@H](Cc1ccc(OCC(=O)O)cc1)NC[C@H](O)c1cccc(Cl)c1 [ONC0002502, brl37344] | 65.77%
COc1ccccc1Oc1c(NS(=O)(=O)c2ccc(C)cn2)nc(-c2ccncc2)nc1OC [ONC0000736, avosentan] | 87.73%
CN(C)/C=N/c1c(I)cc(I)c(CCC(=O)O)c1I [ONC0003787, iopodicacid] | 59.4%
O=C(Nc1cc(C(F)(F)F)cc(C(F)(F)F)c1)Nc1c(Br)cc(Br)cc1-c1nn[nH]n1 [ONC0001703, ns5806] | 58.83%
Nc1ncnc2c1ncn2[C@H]1O[C@@H](C(=O)N2CCN(CC(=O)Nc3cccc4c3CNC4=O)CC2)[C@H](O)[C@@H]1O [ONC0001619, eb47] | 55.83%
CC(C)C(=O)SCCCCC[C@H](NC(=O)OC(C)(C)C)C(=O)NC12CC3CC(CC(C3)C1)C2 [ONC0002528, tcshdac620b] | 72.9%
c1ccc2c(CC3=NCCN3)cccc2c1 [ONC0000371, naphazoline hydrochloride] | 72.12%
CC(=O)OCC(=O)[C@@]12OC(C)(C)O[C@@H]1C[C@H]1[C@@H]3C[C@H](F)C4=CC(=O)C=C[C@]4(C)[C@@]3(F)[C@@H](O)C[C@@]12C [ONC0005095, fluocinonide vanos] | 163.8%
O=C(CCCN1CCC(n2c(O)nc3ccccc32)CC1)c1ccc(F)cc1 [ONC0002014, benperidol] | 79.93%
CC(C)(O)c1coc(S(=O)(=O)NC(=O)Nc2c3c(cc4c2CCC4)CCC3)c1 [ONC0000990, mcc950] | 60.85%
CC(=O)c1cc2c(o1)C(=O)c1ccccc1C2=O [ONC0001089, napabucasin] | 62.94%
S=C(S)N1CCCC1 [ONC0000813, pyrrolidinedithiocarbamate] | 63.17%
O=C1NS(=O)(=O)c2ccccc21 [ONC0003770, saccharin] | 131.5%
NS(=O)(=O)c1cc2c(cc1Cl)NC(C1CC3C=CC1C3)NS2(=O)=O (stereo not drawn) [ONC0002851, cyclothiazide] | 88.9%

Fetched one by one from the list above, 2 records:
Structure (SMILES) | % viability
Nc1ccn([C@@H]2O[C@@](CO)(CCl)[C@@H](O)[C@H]2F)c(=O)n1 [ONC0000939, als8112] | 44.91%
CC(C)C(=O)SCCCCC[C@H](NC(=O)OC(C)(C)C)C(=O)NC12CC3CC(CC(C3)C1)C2 [ONC0002528, tcshdac620b] | 72.9%

Further records:

Structure (SMILES) | % viability
CN(c1ccccc1CNc1nc(Nc2ccc3c(c2)CC(=O)N3)ncc1C(F)(F)F)S(C)(=O)=O [ONC0002481, pf431396] | 92.47%
CC(=O)CC(c1ccccc1)c1c(O)c2ccccc2oc1=O (stereo not drawn) [ONC0003214, warfarin] | 83.77%
CC(C)COc1ccc(CNC(=O)N(Cc2ccc(F)cc2)C2CCN(C)CC2)cc1 [ONC0002034, pimavanserin] | 65.08%
O=c1oc2c(O)c(O)cc3c(=O)oc4c(O)c(O)cc1c4c23 [ONC0004174, ellagic acid] | 100.6%
COc1ccc(/C=C/C(=O)/C=C(O)/C=C/c2ccc(OC)c(OC)c2)cc1OC [ONC0000397, dimethylcurcumin ascj9] | 61.62%
Cc1cn([C@H]2O[C@@H](CO)[C@H](O)[C@@H]2F)c(=O)[nH]c1=O [ONC0004549, clevudine levovir] | 61.35%
CCOc1ccc(-n2c([C@@H](C)N(Cc3cccnc3)C(=O)Cc3ccc(OC(F)(F)F)cc3)nc3ncccc3c2=O)cc1 [ONC0000982, amg 487] | 79.82%
CNC(=O)c1ccccc1Nc1cc(Nc2ccc(N3CCOCC3)cc2OC)ncc1C(F)(F)F [ONC0004282, pnd1186] | 90.77%
Oc1cc(O)c2c(c1)O[C@H](c1ccc(O)c(O)c1)[C@H](O)[C@H]2c1c(O)cc(O)c2c1O[C@H](c1ccc(O)c(O)c1)[C@H](O)C2 [ONC0002081, procyanidin b2] | 61.64%
CNC(=O)c1cc(Oc2ccc(NC(=O)Nc3ccc(Cl)c(C(F)(F)F)c3)cc2)ccn1 [ONC0004748, sorafenib tosylate] | 93.97%
COc1cc2nc(C3CC3)nc(N3CCN(c4ccccc4OC)CC3)c2cc1OC [ONC0001378, ml314] | 86.22%
COc1cccc2c1C(=O)c1c(O)c3c(c(O)c1C2=O)C[C@@](O)(C(C)=O)C[C@@H]3O[C@H]1C[C@H](N)[C@H](O)[C@H](C)O1 [ONC0001686, daunorubicin] | 72.25%
Cc1c(N2C(=O)[C@@H]3[C@H](O)CCN3C2=O)ccc(C#N)c1Cl [ONC0002510, bms564929] | 79.85%
COc1cc(C[C@H]2c3cc(OC)c(OC)cc3CCN2C)c(Oc2cc3c(cc2OC)-c2c(OC)c(OC)cc4c2[C@H](C3)N(C)CC4)cc1OC [ONC0002973, thaliblastine] | 64.41%
C=CC(=O)Nc1cc2c(Nc3ccc(F)c(Cl)c3)ncnc2cc1C#CC(C)(C)N1CCN(C)CC1 [ONC0005448, av412 free base] | 123.5%
Cc1cc(Cn2nnc3c(-c4ccco4)nc(N)nc32)ccc1N [ONC0003519, vipadenant] | 66.76%
O=C(Nc1cc(-c2ccccc2)nn1-c1ccccc1F)c1ccc([N+](=O)[O-])cc1 [ONC0001668, vu1545] | 83.75%
CC/C(=C(\c1ccc(O)cc1)c1ccc(OCCNC)cc1)c1ccccc1 [ONC0004522, endoxifen hcl] | 48.7%
C#CCN(C)C(C)Cc1ccccc1 (stereo not drawn) [ONC0004026, selegiline hydrochloride] | 67.5%
Cc1ccc(S(=O)(=O)Cc2nc(-c3ccc(C(=O)NCc4cccnc4)cc3)oc2C)cc1 [ONC0005103, stf118804] | 70%

Structure (SMILES) | % viability
c1ccc2c(c1)Sc1ccccc1N2CC1CN2CCC1CC2 (stereo not drawn) [ONC0003208, levomequitazine] | 71.99%
CC(=C(CCOC(=O)C(C)C)SSC(CCOC(=O)C(C)C)=C(C)N(C=O)Cc1cnc(C)nc1N)N(C=O)Cc1cnc(C)nc1N (stereo in doubt) [ONC0003382, sulbutiamine] | 88.3%
C=C1CC[C@@H]2[C@](C)(CO)[C@H](O)CC[C@@]2(C)[C@@H]1C/C=C1/C(=O)OC[C@H]1O [ONC0005241, andrographolide] | 99.59%
Cc1cn([C@H]2C=C[C@@H](CO)O2)c(=O)[nH]c1=O [ONC0004210, stavudine] | 101%
CCc1cccc(N(C)C(N)=Nc2cccc3ccccc23)c1 [ONC0004713, cerestat] | 111.4%
CC(=O)NS(=O)(=O)c1ccc(N)cc1 [ONC0000547, sulfacetamide] | 84.05%
O=C(O)[C@H]1CN(C/C=C/P(=O)(O)O)CCN1 [ONC0002611, midafotel] | 84.16%
CN1C(CCl)Nc2cc(Cl)c(S(N)(=O)=O)cc2S1(=O)=O (stereo not drawn) [ONC0004809, methyclothiazide] | 66.17%
C=CC1=C(C(=O)O)N2C(=O)[C@@H](NC(=O)/C(=N\O)c3csc(N)n3)[C@H]2SC1 [ONC0004234, cefdinir] | 60.91%
COc1ccc(NS(=O)(=O)c2ccc(I)cc2)cc1N1CCN(C)CC1 [ONC0001661, sb258585] | 76.38%
O=C1NC(O)CCN1[C@@H]1O[C@H](CO)[C@@H](O)[C@H]1O (stereo partly drawn) [ONC0002970, tetrahydrouridine] | 56.51%
OCc1ccccc1O[C@@H]1O[C@H](CO)[C@@H](O)[C@H](O)[C@H]1O [ONC0004099, salicin] | 138.9%
Cc1cccc(CC(=O)N2CCc3c2ccc(-c2cn(C)c4ncnc(N)c24)c3F)n1 [ONC0005148, gsk2656157] | 97.56%
C[C@@H]1C[C@H]2[C@@H]3CCC4=CC(=O)C=C[C@]4(C)[C@@]3(F)[C@@H](O)C[C@]2(C)[C@@]1(O)C(=O)COP(=O)(O)O [ONC0000407, dexamethasone sodium phosphate] | 67.46%
CCN(CC)CCNC(C(=O)OCCC(C)C)c1ccccc1 (stereo not drawn) [ONC0004025, camylofine dihydrochloride] | 81.77%
COc1cccc(Nc2ncnn3ccc(CN4CC[C@@H](N)[C@H](O)C4)c23)c1 [ONC0001177, bms690514] | 112.7%
Cc1cccc(C)c1NC(=O)N=C1CCCN1C [ONC0002364, xilobam] | 78.29%
COc1ccc(-n2c(SCCCN3C(=O)c4cccc5cccc(c45)C3=O)nnc2-c2ccncc2)cc1 [ONC0000913, wiki4] | 61.96%
Oc1c(I)cc(I)c(O)c1I [ONC0003806, riodoxol] | 55.27%
CCCN(C/C=C/I)C1CCc2cccc(O)c2C1 (stereo not drawn) [ONC0000125, 8hydroxypipat] | 86.56%
